Laboratory results reported in patent US8975245B2, “Anaesthetic formulation” (Drawbridge Pharmaceuticals Pty Ltd, priority 2010, dated 2015).

What was measured:
[1] = tested on: human volunteers; details: expected
[2] = Ceiling toxicity: calculated plasma levels and clearance of alphaxalone
[3] = iv, (7) sulfobutyl ether β-cyclodextrin/alphaxalone formulation

## CC(=O)[C@H]1CC[C@H]2[C@@H]3CC[C@H]4C[C@H](O)CC[C@]4(C)[C@H]3C(=O)C[C@]12C [alphaxalone, 3-α-hydroxy-5-α-,pregnan-11,20-dione]
[1]; compared with Althesin administration
  pharmacokinetics after intravenous administration: the same as for the alphaxalone figures in the literature
[1]; [3]
  BIS value achievable in one arm/brain circulation time: < 50
  pain on injection: no pain on injection
[1]; iv
  speed and quality of recovery after the induction dose, versus propofol: faster
[2]; 4.3 mg/kg, plasma volume 31 ml/kg, instantaneous mixing
  plasma level of drug needed to cause sleep (dose administered as Althesin/plasma volume): 140000 ng/mL
[2]; 30% of theoretical maximum
  plasma concentration expected when the blood has circulated to mix the drug (30%): 46000 ng/mL
[2]; repeated 5 mg/kg PhaxanCD doses
  concentration in plasma at equilibrium: approximately 0.04 mg/ml
[2]; repeated 5 mg/kg PhaxanCD doses, 5 mg/kg/4.2 min
  plasma clearance rate at equilibrium: 30 mls/kg/min
[2]; single iv bolus, 65% of total
  level of free unbound alphaxalone in the plasma associated with anaesthesia induction: 30000 ng/mL
